We go through two sequences from US20080318236.

For this data set, the system named is T1, FANCD2-L (monoubiquitinated xFANCD2, K563) (Xenopus laevis).
T1 sequence (limits assumed): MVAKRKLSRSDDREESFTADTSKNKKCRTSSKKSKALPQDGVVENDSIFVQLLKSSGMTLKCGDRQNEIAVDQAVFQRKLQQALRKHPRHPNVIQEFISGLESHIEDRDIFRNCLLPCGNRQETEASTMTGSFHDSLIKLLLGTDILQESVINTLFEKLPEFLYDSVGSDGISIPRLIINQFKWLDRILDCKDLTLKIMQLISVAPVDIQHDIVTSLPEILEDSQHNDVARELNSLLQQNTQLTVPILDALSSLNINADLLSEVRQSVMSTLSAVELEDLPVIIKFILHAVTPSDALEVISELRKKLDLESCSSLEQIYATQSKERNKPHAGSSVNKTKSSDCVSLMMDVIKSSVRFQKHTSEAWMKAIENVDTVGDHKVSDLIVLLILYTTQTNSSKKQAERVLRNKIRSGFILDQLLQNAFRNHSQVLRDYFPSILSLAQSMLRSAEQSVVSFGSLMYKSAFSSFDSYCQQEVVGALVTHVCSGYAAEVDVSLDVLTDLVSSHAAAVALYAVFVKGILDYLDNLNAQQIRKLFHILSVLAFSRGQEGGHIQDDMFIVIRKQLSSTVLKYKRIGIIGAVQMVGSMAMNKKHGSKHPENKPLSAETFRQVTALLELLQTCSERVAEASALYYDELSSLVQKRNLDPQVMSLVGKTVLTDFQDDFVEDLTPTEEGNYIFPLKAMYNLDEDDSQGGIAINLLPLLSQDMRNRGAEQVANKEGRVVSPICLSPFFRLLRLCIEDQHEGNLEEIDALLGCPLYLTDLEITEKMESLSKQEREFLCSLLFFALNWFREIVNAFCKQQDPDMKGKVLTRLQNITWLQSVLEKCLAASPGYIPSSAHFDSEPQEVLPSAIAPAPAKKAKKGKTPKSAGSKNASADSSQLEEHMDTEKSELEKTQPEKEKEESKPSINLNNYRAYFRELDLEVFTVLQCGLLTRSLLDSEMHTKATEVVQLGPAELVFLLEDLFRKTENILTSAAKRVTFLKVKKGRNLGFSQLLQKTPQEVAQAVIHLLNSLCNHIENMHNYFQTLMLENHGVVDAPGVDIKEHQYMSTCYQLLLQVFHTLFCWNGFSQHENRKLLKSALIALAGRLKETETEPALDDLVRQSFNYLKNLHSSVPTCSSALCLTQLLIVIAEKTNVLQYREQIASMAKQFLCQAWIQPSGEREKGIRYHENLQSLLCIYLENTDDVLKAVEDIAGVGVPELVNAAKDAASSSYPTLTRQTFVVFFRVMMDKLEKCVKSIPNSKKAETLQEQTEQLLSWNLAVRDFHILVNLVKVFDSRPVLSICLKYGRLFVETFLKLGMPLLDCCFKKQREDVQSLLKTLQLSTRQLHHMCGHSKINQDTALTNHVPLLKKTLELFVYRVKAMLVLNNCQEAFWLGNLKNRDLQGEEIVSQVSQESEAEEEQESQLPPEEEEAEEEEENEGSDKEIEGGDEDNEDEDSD
The data set can be described thus: pull-down. The settings on record: Xenopus egg extract, protein in an extract, label: biotin (streptavidin magnetic beads).

Construct, isoform or probe ends are uncertain for at least one entry. At least one result comes from cells or an extract, where the contact may be indirect. Where a protein sequence is shown, tags need not be part of it.

For the sequence “GGTTGACGTTCTAGTGTGACCGCAATACGGATAAGGGCTGAGCACGCCGACGAACATAC / GTATGTTCGTCGGCGTGCTCAGCCCTTATCCCAGAATGCACCAACAGTTCCTCAAGATAGAGACT / GAGTCTCTATCTTGAGGAACTGTTGGTGCATTCTGGGATAAGGGCACTATGGCTCCACTGATGTCGTAAGCATCC / GGATGCTTACGACATCAGTGGAGCCATAGTGCCCTTATCCGTATTGCGGTCACACTAGAACGTCAACC [HJ-DNA68]”, under “3'-biotin on strand 3 (SEQ 9), similar amount to dsDNA68 at 1:1 molar ratio, folded or branched DNA”, the binding result is on record as “binds”.

On to “GGTTGACGTTCTAGTGTGACCGCAATACGGATAAGGGCACTATGGCTCCACTGATGTCGTAAGCATCC (double strand) [dsDNA68]”, for which the binding result (3'-biotin on strand 5 (SEQ 11), bound amount not linear with DNA) was “binds”.
